Data as given in patent US6867212B2 (priority 2001, dated 2005).
Some entries share one result that the patent states for a list of compounds.

How the values were obtained:
pyricularia oryzea = format: cell-based; conditions: final concentration 40 ppm in PDA medium, 25° C., dark, 3 days; ranks 5 to 0
[1] = test system: green caterpillar (common cabbage worm), 3rd instar larvae; test: Test of effect on green caterpillar (common cabbage worm), cabbage leaf dip; format: in vivo; conditions: wettable powder diluted to 1000 ppm, cabbage leaf dipped 30 seconds, 25° C., after 2 days
[2] = test system: green peach aphid (apterous female adults); test: Test of effect on green peach aphid, cabbage leaf dip; format: in vivo; conditions: wettable powder diluted to 100 ppm, cabbage leaf dipped 30 seconds, 25° C., after 3 days
monilia furcticola = format: cell-based

SMILES | effects (rank of colony growth-inhibiting ratio) against pyricularia oryzea (pyricularia oryzea) | insecticidal effect (insecticidal rate) [1] | insecticidal effect (insecticidal rate) [2] | effects (rank of colony growth-inhibiting ratio) against monilia furcticola (monilia furcticola)
CC(F)c1ncnc(NCc2ccc(C(C)(C)C)cc2)c1I (racemic) [Compound 1, 4-(4-t-butylbenzylamino)-6-(1-fluoroethyl)-5-iodopyrimidine] | 4 (85 to 95% was 4) | ≥ 80% |  | 
CC(F)c1ncnc(NC(C)c2ccccc2)c1I (stereo not drawn) [Compound 13, 6-(1-fluoroethyl)-5-iodo-4-(α-methyl-benzylamino)pyrimidine] | 4 (85 to 95% was 4) | ≥ 80% | ≥ 80% | 4 (key: a colony growth-inhibiting ratio of 95 to 100% was rated 5; 85 to 95% was 4; 85 to 70% was 3; 45 to 70% was 2; 10 to 45% was 1; 10 to 0% was 0)
